Results are given in words; binding and its absence hold for the method and conditions named. Binding seen in cells or lysates may run through a third protein. Here binding means that the protein was enriched with, or labelled near, the bait; the list need not be complete.
B1: CERS5, endogenous (protein, UniProt Q8N5B7 1-392)
chain: MATAAQGPLSLLWGWLWSERFWLPENVSWADLEGPADGYGYPRGRHILSVFPLAAGIFFVRLLFERFIAKPCALCIGIEDSGPYQAQPNAILEKVFISITKYPDKKRLEGLSKQLDWNVRKIQCWFRHRRNQDKPPTLTKFCESMWRFTFYLCIFCYGIRFLWSSPWFWDIRQCWHNYPFQPLSSGLYHYYIMELAFYWSLMFSQFTDIKRKDFLIMFVHHLVTIGLISFSYINNMVRVGTLIMCLHDVSDFLLEAAKLANYAKYQRLCDTLFVIFSAVFMVTRLGIYPFWILNTTLFESWEIIGPYASWWLLNGLLLTLQLLHVIWSYLIARIALKALIRGKVSKDDRSDVESSSEEEDVTTCTKSPCDSSSSNGANRVNGHMGGSYWAEE
B2: LASP1 (LIM and SH3 domain protein 1), endogenous (protein, UniProt Q14847 1-261)
chain: MNPNCARCGKIVYPTEKVNCLDKFWHKACFHCETCKMTLNMKNYKGYEKKPYCNAHYPKQSFTMVADTPENLRLKQQSELQSQVRYKEEFEKNKGKGFSVVADTPELQRIKKTQDQISNIKYHEEFEKSRMGPSGGEGMEPERRDSQDGSSYRRPLEQQQPHHIPTSAPVYQQPQQQPVAQSYGGYKEPAAPVSIQRSAPGGGGKRYRAVYDYSAADEDEVSFQDGDTIVNVQQIDDGWMYGTVERTGDTGMLPANYVEAI

Molecular target: T1, CERS6 (ceramide synthase 6), endogenous (human (endogenous in A549)) (UniProt Q6ZMG9)
T1 sequence: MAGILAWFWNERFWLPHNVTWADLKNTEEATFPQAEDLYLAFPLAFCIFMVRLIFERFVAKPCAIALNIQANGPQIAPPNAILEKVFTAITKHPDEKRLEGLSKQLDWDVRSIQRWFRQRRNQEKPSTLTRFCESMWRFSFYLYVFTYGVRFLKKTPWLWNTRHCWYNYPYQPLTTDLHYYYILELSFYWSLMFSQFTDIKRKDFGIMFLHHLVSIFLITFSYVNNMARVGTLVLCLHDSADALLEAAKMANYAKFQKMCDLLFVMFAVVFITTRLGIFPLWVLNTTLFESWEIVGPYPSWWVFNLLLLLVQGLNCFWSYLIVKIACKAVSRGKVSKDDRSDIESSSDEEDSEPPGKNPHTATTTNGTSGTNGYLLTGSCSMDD
Assay: affinity purification with mass spectrometry; IP with anti-CERS6 antibody against anti-IgG control, Dynabeads Co-Immunoprecipitation Kit, A549 cells; SDS-PAGE, in-gel digestion, LC-MS/MS; performed twice

Binder | binding
B1 | binds
B2 | binds

From publication PMC10216351
